# Assay results from PubChem BioAssay AID540275 (National Center for Advancing Translational Sciences (NCATS), 2011).
# Protein sequences, listed by entry. Tags and fused reporters are not part of them.
# UniProt Q8NER1, whole entry, looked up: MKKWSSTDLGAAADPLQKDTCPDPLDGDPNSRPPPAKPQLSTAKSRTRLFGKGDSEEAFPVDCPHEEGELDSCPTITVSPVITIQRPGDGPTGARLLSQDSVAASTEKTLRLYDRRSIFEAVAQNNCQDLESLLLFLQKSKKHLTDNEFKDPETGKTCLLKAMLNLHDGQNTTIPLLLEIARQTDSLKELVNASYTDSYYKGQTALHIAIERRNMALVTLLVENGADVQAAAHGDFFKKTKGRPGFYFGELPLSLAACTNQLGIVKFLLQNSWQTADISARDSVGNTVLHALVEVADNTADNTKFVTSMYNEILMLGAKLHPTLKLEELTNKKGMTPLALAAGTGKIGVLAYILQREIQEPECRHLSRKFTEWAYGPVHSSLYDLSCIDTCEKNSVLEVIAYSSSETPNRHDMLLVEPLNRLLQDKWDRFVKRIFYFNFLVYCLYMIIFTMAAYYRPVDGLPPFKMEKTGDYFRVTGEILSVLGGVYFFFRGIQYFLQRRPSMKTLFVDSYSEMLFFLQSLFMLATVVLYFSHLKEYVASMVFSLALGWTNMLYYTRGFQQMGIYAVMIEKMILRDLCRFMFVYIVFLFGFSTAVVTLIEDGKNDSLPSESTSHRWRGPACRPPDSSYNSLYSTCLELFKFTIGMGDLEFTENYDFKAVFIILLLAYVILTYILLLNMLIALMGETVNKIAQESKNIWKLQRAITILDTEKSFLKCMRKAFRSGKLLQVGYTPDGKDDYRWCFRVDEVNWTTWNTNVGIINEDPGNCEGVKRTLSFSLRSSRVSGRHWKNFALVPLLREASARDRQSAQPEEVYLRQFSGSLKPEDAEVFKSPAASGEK
# Where “and” joins values, the source holds several entries; their conditions need not be identical. Equal values may be shown once. The whole screen tested about 320,000 compounds, of which about 620 (0.19%) were called active. Inconclusive means that the source gave no clear call. Such entries were picked first, then a sample of the others. No stated cut-off is given here; in the data, active means activation above about 80%; inconclusive means between about 30% and that limit; inactive means weaker than that.
# Molecular target: Transient receptor potential cation channel subfamily V member 1 (Homo sapiens) (UniProt Q8NER1)
# Assay: HTS Assay for Compounds that Act as Agonists of the Vanilloid Receptor 1; further: 0% is about no effect
# Settings: TRPV1-expressing cells, Fluo-8 calcium influx, agonist mode; at 8.33 µM, hits give high values
# How it was run: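 Cells expressing TRPV1 were dye-loaded with Fluo-8 and read kinetically: 10 s baseline, 3 min after compound (agonist portion), then 2 min after EC20 capsaicin (allosteric enhancer portion). Calcium-bound dye fluorescence at 480/520 nm.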
row,SMILES,activation
1,COc1ccc(NC(=O)c2ccccc2OCc2ccc(F)cc2)c(OC)c1,inconclusive: 44.3%
2,Cc1ccc(C(=O)OCC(=O)NC2CCCCCC2)c(C)c1,inconclusive: 38.9%
3,Cn1c(C(=O)NC2CCCCC2)cc2c(=O)n3ccccc3nc21,inconclusive: 36.5%
4,Cc1cc(C)c2c(CN3CCN(C/C=C/c4ccccc4)CC3)cc(=O)oc2c1,inactive: -5.43%
5,CCC(C)(C)NC(=O)Nc1cc(Cl)ccc1OC,inactive: 3.64%
6,Cc1cccc(N/C=C/C(=O)c2cccs2)c1C,inconclusive: 32.7%
7,CC(C)c1ccc(/C=N\NC(=O)c2ccc(Cn3cccn3)o2)cc1,active: 82.3%
8,CC1(C)NC(=O)N(CCOCCOc2c(Cl)cc(Cl)cc2Cl)C1=O,inconclusive: 37.5%
9,CN1CCN(CCCN2c3ccccc3Sc3ccc(C(F)(F)F)cc32)CC1,inactive: 5.49% and inactive: 7.48%
10,CC(C)N(C(=O)CSc1nc2ccccc2n1Cc1ccccc1F)C(C)C,inconclusive: 37.4%
11,O=C(/C=C/c1cccc(Cl)c1)NCc1ccccc1,inconclusive: 44.7%
12,Cc1sc(N/N=C/c2cccs2)nc1-c1ccccc1,inactive: 0.576%
13,O=S(=O)(CCc1ccncc1)Cc1ccc2c3c(cccc13)CC2,inconclusive: 34.8%
14,Cc1ccccc1C(=O)Nc1cc(S(=O)(=O)N2CCCCC2)ccc1N1CCN(C)CC1,inactive: 21.6%
15,CC1CCN(c2oc(-c3cccc4ccccc34)nc2C#N)CC1,inconclusive: 31.9%
16,CC(C)c1ccc(NC2CCCN(C(=O)CCN3CCOCC3)C2)cc1 (centres undefined),inconclusive: 61.7%
17,Cc1cccc2c1NC(=O)/C2=C\C(=O)c1cccs1,inactive: 10.5%
18,O=C(Nc1ccc(S(=O)(=O)N2CCCC2)cc1)c1ccc([N+](=O)[O-])cc1,inconclusive: 64.3%
19,NS(=O)(=O)c1ccc(NC(=O)CSc2ccccc2)cc1,inconclusive: 35%
20,CCC(C)NC(=S)N1CCN(C(c2ccccc2)c2ccccc2)CC1 (centres undefined),inconclusive: 30.6%

# Shown bar-delimited: part of the list above
row | SMILES | activation
7 | CC(C)c1ccc(/C=N\NC(=O)c2ccc(Cn3cccn3)o2)cc1 | active: 82.3%
8 | CC1(C)NC(=O)N(CCOCCOc2c(Cl)cc(Cl)cc2Cl)C1=O | inconclusive: 37.5%
9 | CN1CCN(CCCN2c3ccccc3Sc3ccc(C(F)(F)F)cc32)CC1 | inactive: 5.49% and inactive: 7.48%

# Next part:

row,SMILES,activation
1,Cc1ncsc1CCOC(=O)C12CC3CC(CC(C3)C1)C2,inconclusive: 48.4%
2,O=C(c1ccc2c(c1)N(Cc1ccc(F)cc1)CCS2)N1CCOCC1,inconclusive: 34.1%
3,CCOC(=O)c1c(NC(=O)CCC(=O)N2CCOCC2)sc2c1CC(C)(C)OC2,inconclusive: 56.2%
4,O=C(c1cccc(S(=O)(=O)N2CCOCC2)c1)N1CCCC(C(F)(F)F)C1 (centres undefined),inactive: -0.262%
5,Cc1cccc(NC(=O)c2ccc(S(=O)(=O)N3CCCC3)cc2)c1C,inconclusive: 57.6%
6,O=C(CSCc1ccc(F)cc1)N1CCN(c2ccc(F)cc2)CC1,inconclusive: 52.9%
7,O=C(CCCOc1ccccc1)Nc1ccncc1,inconclusive: 46.8%
8,COc1cccc2cc(-c3ccnc(=S)[nH]3)oc12,inactive: 0.821%
9,CCOC(=O)C1CCCN(C(=S)NC(=O)/C=C/c2ccc(F)cc2)C1 (centres undefined),inconclusive: 61.3%
10,COc1ccc2c(c1)-c1nc(/N=C/c3c(O)ccc4ccccc34)sc1CC2,inactive: -2.96%
11,Cc1ccc(NC(=S)NCc2ccc(F)cc2)c(C)c1,inconclusive: 37.5%
12,O=C(COc1ccc2c3c(c(=O)oc2c1)CCC3)NCc1ccncc1,inconclusive: 36.2%
13,COCCn1c(C)cc(C(=O)CSc2nnnn2C2CCCC2)c1C,inconclusive: 33.1%
14,CC(C)c1ccc(CCNC(=O)CSC(=S)N2CCCC2)cc1,inconclusive: 52.4%
15,Cn1nc(C(C)(C)C)c(NC(=O)c2cccs2)c1C(C)(C)C,inactive: -0.557%
16,Cc1ccc(S(=O)(=O)NC(CC(=O)O)c2ccc(F)cc2)cc1 (centres undefined),inactive: -12.7%
17,CN(C)c1ccc(C(=O)/C=C/c2ccccc2)cc1,inconclusive: 47.2%
18,CCC(Sc1nc2ccccc2[nH]1)C(=O)Nc1cc(C)on1 (centres undefined),inactive: 10.5%
19,COC(=O)C1=C(C)NC(C)=C(C(=O)OC)C1c1ccc(OC(=O)c2ccco2)cc1,inactive: 0.21%
20,CC(=O)N1N=C(c2ccc(C)cc2)OC1c1cccnc1 (centres undefined),inconclusive: 55%

row,SMILES,activation
1,COc1ccc(/C(C)=N/Nc2cccc(C(=O)O)c2)cc1OC,inactive: -5.76%
2,COc1cccc(OCCNC(=O)c2ccc(C)cc2)c1,inconclusive: 41.7%
3,COc1ccc(/C=C/C(=O)Nc2ccccc2C(F)(F)F)cc1OC,inactive: -0.444%
4,CCNc1ccccc(-c2ccc3ccccc3n2)c1=O,inactive: 21%
5,CN(C)C(=O)N1CCN(c2nc(-c3ccccc3)cs2)CC1,inconclusive: 56.7%
6,COc1ccc(CCn2c(=S)[nH]c3ccc(N4CCOCC4)cc3c2=O)cc1OC,inactive: -1.91%
7,COc1ccc2c(c1)CC/C(=C/c1cc(OC)c(OC)c(OC)c1)C2=O,inactive: 20.1%
8,O=[N+]([O-])c1ccc(N2CCN(c3ccccn3)CC2)c(Cl)c1,inconclusive: 34.7%
9,O=C(Nc1cccc(S(=O)(=O)N2CCCCC2)c1)c1cc2ccccc2o1,inconclusive: 35.6%
10,CC(=O)c1sc2nsc(SCCN3CCOCC3)c2c1N,inactive: 14.3%
11,O=C(NC1CSCC1OC(=O)c1ccccc1)c1ccccc1 (centres undefined),inactive: 15.8%
12,CCCNC(=S)Nc1cccc(C(F)(F)F)c1,inconclusive: 33.3%
13,Fc1ccccc1N=C1NN=C(c2ccccc2)CS1,inactive: -1.62%
14,O=S(=O)(c1ccc(F)cc1)N1CCN(C(=S)NCCc2ccccc2)CC1,inconclusive: 78.5%
15,CC1(C)CC2CC(C)(CN2S(=O)(=O)c2cccc(C(=O)OCC(N)=O)c2)C1 (centres undefined),inconclusive: 35.8%
16,Cc1cc(C)cc(OCC(=O)NCCc2nc3ccccc3[nH]2)c1,inconclusive: 58.8% and inconclusive: 53.1%
17,CCCCCNC(=O)c1cc(S(=O)(=O)N2CCCC2)ccc1F,inconclusive: 47%
18,S=c1nc(NCCc2ccccc2Cl)c2ccccc2[nH]1,inactive: 15.7%
19,CCOC(=O)c1sc2nc(CSc3ccccc3)nc(N3CCC(C(N)=O)CC3)c2c1C,inactive: -1.88%
